The full ranking holds about 33,000 sequences; the median of “E-score (-0.5 to 0.5)” is about -8e-05, and the highest 2% start at about 0.23. This is one part of the list.
The sequences below were run against T1, Nrg2 (UniProt P38082) (assay: PBM E-score (8-mer binding enrichment) (E-score (-0.5 to 0.5)); higher = stronger / more preferred TF binding). Conditions: protein concentration: 100 nM; construct: GST-full length.
T1 sequence: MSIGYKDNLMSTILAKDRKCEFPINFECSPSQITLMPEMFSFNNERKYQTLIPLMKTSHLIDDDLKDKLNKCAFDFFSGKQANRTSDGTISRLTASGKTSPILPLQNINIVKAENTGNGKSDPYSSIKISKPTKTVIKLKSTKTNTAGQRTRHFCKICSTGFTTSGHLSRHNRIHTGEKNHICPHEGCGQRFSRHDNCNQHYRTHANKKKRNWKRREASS
How it was run: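 Bound GST-tagged yeast transcription factors, applied at about 100-200 nM to double-stranded universal all-10-mer Agilent arrays, were detected with fluorescent anti-GST. Scans were normalised with masliner. A modified Wilcoxon-Mann-Whitney statistic, the E-score, was assigned to each ungapped eight-base word pooled with its reverse complement by the Universal PBM Analysis Suite.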

Sequence	PBM E-score
AAGGCGAC	-0.0828
ACGGCAGT	-0.217
CACACTCG	0.0824
CAGCTGAC	0.176
GCAGGAGC	-0.234
CACGTCGC	0.00816
ATCCACAA	-0.0455
ATTCCTTC	0.121
GAGATATA	0.0014
AATACGGC	0.084
AGTTGTGA	0.0643
ACGAATAC	0.101
GGAAACAA	0.105
ACACCATG	-0.0445
CCAAACAA	0.0751
CCTTGTAA	-0.00975
ATTATTGC	0.129
CCGCCCGC	0.207
GATCAGAC	-0.0819
AAGCCTCG	-0.043
TAGATTAA	0.112
AGACTCTA	-0.177
CGAGCGTC	-0.0434
CCTTCGAA	0.0667
CCCGGCTC	-0.255

Sequence	PBM E-score
ACACTAAT	0.121
CGGCTGTC	-0.1
CCCCTGTA	0.144
CAATCAAA	0.082
AACAATCC	0.241
CTTCCATA	-0.275
CAGGAAGG	-0.334
CAGGTAGA	-0.127
AGATGATG	0.162
ACCCCAGT	0.129
GTCGTTTA	-0.00227
GGGGGGCA	-0.4
GGCCGTTA	0.0362
ACGGGCTG	-0.105
AGTTAACG	0.0671
GGCTAGCC	-0.297
TGACCCCA	0.0468
CAGTCTAA	0.144
TCGGTAGA	-0.0262
AAAATCTT	-0.0461
AGAGGGAG	-0.218
CTTAGACC	-0.101
ACAGTGAG	-0.0725
ACCGGCAC	-0.0264
GCTCACTA	-0.044

Sequence	PBM E-score
CCTTCCAC	-0.103
AATTACCT	0.0249
GGGCATTA	-0.0626
CTTAGCTC	-0.107
CCTCTTCC	-0.223
ACTTGTAC	-0.0669
ATGGTAGC	-0.0451
GACGAACC	-0.0352
GCCCAGTA	-0.0593
TACCCTCA	0.00099
AGGGGCTC	-0.101
CCAGCGCA	-0.0719
GTTACAAA	0.123
AAGGTACC	-0.124
CGCGGTTC	0.0879
TAAGCGTA	-0.0836
GAGGCACA	-0.0967
AGGAGGCG	-0.208
CTATATAG	0.00641
AGCCTGCA	0.0137
ATTGCCGA	-0.0437
AGAATGGA	0.121
CTTCCCCA	-0.0627
CCAATTTA	0.185
CCAGTAAC	0.00285

Sequence	PBM E-score
AACGCCTC	-0.295
GGTGTACA	0.0285
CTAAAGTA	-0.124
ACAACCTC	-0.107
ACCCGTAG	-0.177
CGCTTATC	-0.0744
ATCGCAAG	0.129
CAGGGGCG	0.252
CATTGCGG	0.0322
CTGTGTGA	0.141
AACGACCT	-0.00677
GCGTGTGA	-0.0144
TTCATGAA	0.0894
CAGCGCGA	0.0812
AGCGATCA	-0.156
GGAGTAAC	-1e-05
AGCATAGC	-0.0891
GGTCTCTA	-0.00143
CGCTACCG	-0.134
GGTTGGTA	0.0761
GCATCCCA	-0.227
AAAGCAGG	-0.0439
TGCCGGCA	0.00969
CATGGGGG	-0.232
GCCCCGAA	0.21

Sequence	PBM E-score
CAGCTCTA	-0.0327
CTATGATA	0.0584
AAGTTCCG	0.0754
GTGCAGGA	-0.0538
AAAAATCG	-0.0261
AAGCTCCT	-0.22
AAACGGGA	0.144
ACTTCTTA	0.0859
TACTGAGA	-0.0209
CAATTTCG	0.0322
ACTAATCA	0.0989
AATGGAAG	0.0112
CTGCCGAA	-0.21
CACTACCC	0.155
ACGACATC	-0.0348
ACTGGCGA	-0.101
CCTGGAAG	-0.0758
ACACCGAG	-0.0836
CAGGATCG	-0.21
ACTAGCGC	-0.0303
CCCGGAAA	0.129
AAAGAGAG	-0.132
CATAAGGA	-0.142
AGTCATCC	-0.23
GCGCGTAC	0.158

Sequence	PBM E-score
CAGCCCGG	-0.0609
AGGCTCTA	-0.242
CCCATCGG	-0.0792
ACTCTTGG	-0.173
CTCCGACA	-0.135
ATCGCTCC	-0.156
TCAAGAGA	0.0364
TCATATCA	0.0508
CCATCCAC	0.0309
CCGCAACG	0.0857
ATTATCAA	0.1
AACTGATC	-0.0368
ATAGGGTG	-0.0278
GTTGGATA	-0.0617
ACTATGAC	0.00865
ATTTGTCG	0.187
ACGAACTG	-0.0717
AAATTACG	-0.0526
AGGGATGC	-0.099
ACGTAAGT	-0.229
AAGCCTTG	-0.0475
ACCTTGAA	0.0775
CCGGAGCC	-0.189
ATACGATA	0.0101
GCCTGGCC	-0.078

Sequence	PBM E-score
CCTATCCA	-0.149
GACTATGC	-0.0495
CCTCATGA	0.107
TCACATCA	0.152
AGGGCTAT	-0.213
ACCTAGTC	-0.129
ATCCGTTG	0.179
TACACGAA	0.18
GACCACCC	-0.152
ATGGATGA	0.0292
CAAGAGGG	-0.0388
CGGGAGAA	-0.0749
AGGAGTTA	0.0585
TACGGGAA	-0.0757
ACCACCCG	-0.154
AACGTATG	-0.0217
CAATGTAA	0.0359
CAAGTGAG	0.0108
AATAGAGT	-0.201
TAAAACGA	-0.173
ACAACCAG	0.101
ATGTACCC	0.0315
AGCAGGGA	0.0712
AAAACCGA	0.0792
GAACGACC	-0.211

Exported field by field: part of the list above
ACTAGCGC
  PBM E-score: -0.0303
CCCGGAAA
  PBM E-score: 0.129
AAAGAGAG
  PBM E-score: -0.132
CATAAGGA
  PBM E-score: -0.142

Further results.

Sequence	PBM E-score
CCTGAAGA	0.122
TCATGACA	0.177
ATTAATCA	0.171
TCCCGTCA	-0.058
CGCGATGA	0.213
AATGTCTG	0.0226
AATCGAGG	0.248
CTCCACAG	-0.227
CAGCAGAA	0.0568
CCTGCGAA	-0.0333
GCGTCGAA	0.163
CCCATCCC	-0.0779
CTAACTAG	0.115
AACATGAG	-0.163
ATGGCAAA	-0.0052
AAACATCC	0.0804
CTACACGA	0.111
AATGTATC	0.125
CGCATGAA	0.0505
AGAAGAAC	-0.0494
AGGCACAT	0.121
CACACACA	0.0943
ATGTAGCG	-0.0885
ACCTCTCG	-0.0649
AGGCAGTG	0.0683

Sequence	PBM E-score
ATAGAGGA	-0.141
GAGATCCC	0.164
ACCGGCCA	-0.214
AGGCCGCC	-0.0684
ACCTCAGA	-0.197
GAGATAAA	0.138
AATGGATC	0.121
AGTCACAT	-0.181
TGTGGTAA	-0.0785
CGTTAAGA	-0.017
TAATCGGA	0.128
ATCCTCGA	0.198
CTCACAAC	0.206
AACCGGAC	-0.0624
ACGGAAAA	0.0488
CGCGAGAG	0.0631
ATGGTCAC	0.103
ATCCCAGA	-0.161
CCAAAACA	-0.0279
TCTATGAA	-0.0279
CCACAGAG	0.125
GGCTGCAA	0.0578
ACCTGCCA	-0.134
TGCTTCAA	-0.0671
ACATTCCA	-0.0578

Sequence	PBM E-score
AAGATGGG	-0.0491
CGTTCTAA	0.00602
TCACCCAA	0.054
GCCGTCGA	0.0849
ATTGCCGC	-0.0316
ATGGAGGG	-0.254
GGCTCCCA	-0.238
CAACCACC	0.0494
AGTCCATG	-0.0354
GCTGATCC	0.0877
ACCTGAAC	-0.159
AGAATAAC	-0.127
AAAATATC	0.098
CGGTACAA	0.0143
AGAAGCCT	0.0897
CGGCCCGC	-0.0324
CGGTAGAG	-0.151
AGGCTGGC	-0.227
AGGCCTTG	-0.252
AAACAACG	0.0386
GAGGTCGA	0.0639
GTGGATAA	0.0278
AACAACCT	-0.0786
AGGGTATC	0.169
AACACGTC	-0.188

Copied from the list.
Under PBM E-score, AAACAACG shows 0.0386
Under PBM E-score, CGTTCTAA shows 0.00602

(next part)

Sequence	PBM E-score
GGTAGAAA	-0.11
GCATCTCC	-0.0431
CGCCAACC	-0.155
AGCGAAAC	0.102
ACACTCTC	0.104
CTTTTTCC	0.0458
CCGCCACA	0.0604
AGATATAT	0.0823
ATTGATCA	0.0745
AGTGACCC	0.0583
CGCGATTA	0.216
CCCAAACA	0.211
AATATCGC	0.104
GCGTGTAC	-0.0885
CCGTTGTA	0.201
CCACGCGC	-0.0713
GAGTTTCA	0.00699
GATTTCGC	0.281
AGTACGTC	0.0567
ATAGATCG	0.0393
CACGCAGC	-0.0258
AATACTTG	0.0671
CTCTAAAA	-0.195
CAAGTTAG	0.0709
GCAGCTAC	-0.00081

Sequence	PBM E-score
CCCATGCG	-0.177
TATATCAA	0.149
CGCCTAAA	-0.134
AGGTCAGC	-0.135
AAGATTTA	0.00464
GAGGACAA	0.0114
CCCTGACA	0.288
CCCCGCGA	0.0863
ATAGCCCA	0.0729
CAATTTGA	0.0984
TACAACGA	0.0238
CGGAGGTC	-0.00667
ACACGCTG	-0.109
CGAAACCC	0.103
ATAAGCTC	-0.0927
ACTTCGCT	0.0287
CATAGTTA	-0.0635
CTGTCGGC	-0.0375
AGCGTGGC	0.0396
AATCTATG	0.0819
GATTTGAC	0.0597
CCAGCTGC	-0.0958
TATGGTGA	-0.0798
CGATCCCG	-0.0843
CTCCGCCA	-0.0925

Sequence	PBM E-score
GAGGGGCC	-0.0201
AATATACT	0.0619
AGTAGTAG	-0.0615
CCTTACAA	-0.0884
ACTTGCCC	-0.0844
GGGACCAA	0.138
GCTCAGCC	-0.191
AAGGATTC	-0.124
CAAACTAA	0.184
ACCTTCCC	-0.156
CTAGCACC	0.0733
AAGTTCAG	-0.0274
AGCACTTG	-0.164
GACTGGTA	0.0862
AAACGCAG	-0.0508
AGTTAAGA	0.0745
CGCTGACC	0.0434
GACCATAC	-0.125
GGCGACCC	-0.0112
ACGTTGGC	-0.247
CGTATTGC	-0.0307
AGCAGAAC	0.0196
CGGGAATA	0.0776
GGGGTTAC	-0.296
CTTGGACC	-0.0417

Reformatted: entries from further up

| Sequence | PBM E-score |
| --- | --- |
| AGCACTTG | -0.164 |
| GACTGGTA | 0.0862 |
| AAACGCAG | -0.0508 |
| AGTTAAGA | 0.0745 |
| CGCTGACC | 0.0434 |
| GACCATAC | -0.125 |

Going on with the list.

Sequence	PBM E-score
AGTCGTGA	-0.076
CGGGCGAC	-0.278
CTATGTGC	0.0174
ACTAGAGA	-0.127
AGCATGCG	0.00586
CCGGTCTC	-0.13
AGTACTCA	-0.0331
CCGGGATA	-0.0524
CGCCGTCC	-0.138
GGGGGTTA	-0.432
GTACCGGA	0.0409
ACAAGGAA	0.0647
CTACTATA	0.143
GCGCGCAA	0.201
AAGTTGGT	0.136
ACAATCCC	0.0851
CAAGTGTA	-0.0141
GGGACATA	0.193
CCTTGTCG	-0.0281
